Measurements from US20260248946A1 (TUOJIE BIOTECH SHANGHAI, published 2026).

Molecular target: monkey CD79B on cells (monkey peripheral blood mononuclear cells / monkey B cells) (monkey)
Test: FACS on 293F-cynoCD79B cells, antibody at 10 and 1 ug/ml

binding: no binding (tested: 10ug/ml)
B1: mAb015 (antibody, V domains shown)
VH: QVQLQQSGAELARPGASVKLSCKASGSSFTSYGINWVKQRTGQGLEWIGEIFPRSGNTYYNEKFEGKATLTADKSSSTAYMELRSLTSEDSAVYFCAKGDLGDFDYWGQGTTLTVSS
VL: DFLMTQTPLSLPVRLGDQASISCRSSQSIVHSDGNTYFEWYLQKPGQSPKLLIYKVSNRFSGVPDRFSGSGSGTDFTLKISRVEAEDLGVYYCFQGSHVPWTFGGGTKLEIK
notes: Mouse monoclonal antibody from hybridoma; also called 83B2G2

binding: no binding (tested: 10ug/ml)
B2: mAb017 (antibody, V domains shown)
VH: QVQLQQSGAELARPGASVKLSCKASGYTFTTYGINWVKQRTGQGLEWIGEIYPRSGNIYYNEKFKGKATLTADKSSSTAYMELRSLTSEDSAVYFCARGSDYDGDFAYWGQGTLVTVSA
VL: B1 VL with F2V, R14S, S32H, F38L, K108Q
notes: Mouse monoclonal antibody from hybridoma; also called 86F11F6

Changes are numbered by the printed parent chain. Results are given in words; binding and its absence hold for the method and conditions named. Each block holds one binder with its values, some of them ahead of it.
